According to publication PMC8825860:
These are yes or no findings as the source states them, for the method shown. In cells and extracts the contact can be indirect. Some results given as binding are weak or reduced against the parent protein; the word gives no strength.

By UniProt entry, the sequences of proteins in these tests, tags left out. Where a name states a change or a piece, a line headed by the entry shows the natural chain unless it says otherwise.
UniProt P15056: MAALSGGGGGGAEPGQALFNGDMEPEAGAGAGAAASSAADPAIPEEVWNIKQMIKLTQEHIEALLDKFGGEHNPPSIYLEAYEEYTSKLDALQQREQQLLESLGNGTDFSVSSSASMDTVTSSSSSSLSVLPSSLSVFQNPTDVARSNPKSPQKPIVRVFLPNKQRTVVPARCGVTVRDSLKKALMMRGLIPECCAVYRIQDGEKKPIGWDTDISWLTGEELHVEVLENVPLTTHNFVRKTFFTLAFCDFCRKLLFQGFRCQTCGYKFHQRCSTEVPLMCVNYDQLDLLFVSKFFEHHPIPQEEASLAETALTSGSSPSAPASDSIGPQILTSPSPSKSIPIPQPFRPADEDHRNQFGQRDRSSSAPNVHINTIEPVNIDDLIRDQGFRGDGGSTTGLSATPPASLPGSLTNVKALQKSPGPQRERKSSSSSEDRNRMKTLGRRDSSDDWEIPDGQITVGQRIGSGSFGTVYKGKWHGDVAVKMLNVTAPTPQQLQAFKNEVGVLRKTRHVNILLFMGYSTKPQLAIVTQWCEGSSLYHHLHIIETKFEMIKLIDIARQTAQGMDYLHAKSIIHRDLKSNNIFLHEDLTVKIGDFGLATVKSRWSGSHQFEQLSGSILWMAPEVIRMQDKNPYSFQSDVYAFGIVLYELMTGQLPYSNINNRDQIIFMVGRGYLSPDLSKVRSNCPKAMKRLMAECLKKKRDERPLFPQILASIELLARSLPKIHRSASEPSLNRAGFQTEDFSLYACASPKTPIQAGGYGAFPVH
UniProt P27695: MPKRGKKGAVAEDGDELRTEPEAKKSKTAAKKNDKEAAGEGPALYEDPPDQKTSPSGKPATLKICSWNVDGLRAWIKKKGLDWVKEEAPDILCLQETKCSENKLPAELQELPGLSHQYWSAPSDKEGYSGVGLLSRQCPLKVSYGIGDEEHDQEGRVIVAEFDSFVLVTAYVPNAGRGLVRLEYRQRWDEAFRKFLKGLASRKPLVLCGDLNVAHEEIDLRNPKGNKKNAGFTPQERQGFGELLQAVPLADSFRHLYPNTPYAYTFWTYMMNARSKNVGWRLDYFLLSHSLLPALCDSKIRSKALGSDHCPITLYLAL

Molecular target: BRAF V600E (human) (UniProt P15056)
Assay: co-IP; TPC-1 cells with a BRAF V600E Tet-on system; which protein was precipitated and the buffer are not told

Substance: Redox factor-1 (Ref-1) (from UniProt P27695 1-318)
- binding: binds
